Measurements taken from the supplement of paper PMC8728848.
The other results are listed elsewhere or left out.

Experiments:
Assay in all cases: glycan array binding signal (z-score within array); higher = stronger binding
Conditions in all cases: glycan notation: IUPAC condensed, linker removed
[1] = biological target: Gal(b1-4)GlcNAc(a1-6)Gal(b1-4)GlcNAc
How it was run: (§1)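 Glycan array data came from 3228 arrays in the Consortium for Functional Glycomics database, and only arrays with an available protein sequence were kept. Glycan names were put into IUPAC-condensed notation, and columns mapping to the same glycan were averaged. The binding signal is a within-array Z-score, averaged across arrays of one protein sequence run at different concentrations or buffers and across linkers. A negative Z-score can be read as non-binding.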

[2] = biological target: Gal(b1-4)GlcNAc(b1-2)Man(a1-3)Man(b1-4)GlcNAc(b1-4)GlcNAc
How it was run: as §1

[3] = biological target: Gal(b1-4)GlcNAc(b1-2)Man(a1-3)[Gal(b1-4)GlcNAc(b1-2)Man(a1-6)]Man(b1-4)GlcNAc(b1-4)GlcNAc
How it was run: as §1

[4] = biological target: Gal(b1-4)GlcNAc(b1-2)Man(a1-3)[Gal(b1-4)GlcNAc(b1-2)Man(a1-6)]Man(b1-4)GlcNAc(b1-4)[Fuc(a1-6)]GlcNAc
How it was run: as §1

[5] = biological target: Gal(b1-4)GlcNAc(b1-2)Man(a1-3)[GlcNAc(b1-2)Man(a1-6)]Man(b1-4)GlcNAc(b1-4)GlcNAc
How it was run: as §1

[6] = biological target: Gal(b1-4)GlcNAc(b1-2)Man(a1-3)[Man(a1-6)]Man(b1-4)GlcNAc(b1-4)GlcNAc
How it was run: as §1

[7] = biological target: Gal(b1-4)GlcNAc(b1-2)Man(a1-6)Man(b1-4)GlcNAc(b1-4)GlcNAc
How it was run: as §1

[8] = biological target: Gal(b1-4)GlcNAc(b1-2)Man(a1-6)[GlcNAc(b1-2)Man(a1-3)]Man(b1-4)GlcNAc(b1-4)GlcNAc
How it was run: as §1

[9] = biological target: Gal(b1-4)GlcNAc(b1-2)Man(a1-6)[Man(a1-3)]Man(b1-4)GlcNAc(b1-4)GlcNAc
How it was run: as §1

[10] = biological target: Gal(b1-4)GlcNAc(b1-2)[Gal(b1-4)GlcNAc(b1-4)]Man(a1-3)[Gal(b1-4)GlcNAc(b1-2)Man(a1-6)]Man(b1-4)GlcNAc(b1-4)GlcNAc
How it was run: as §1

[11] = biological target: Gal(b1-4)GlcNAc(b1-2)[Gal(b1-4)GlcNAc(b1-4)]Man(a1-3)[Gal(b1-4)GlcNAc(b1-2)[Gal(b1-4)GlcNAc(b1-6)]Man(a1-6)]Man(b1-4)GlcNAc(b1-4)GlcNAc
How it was run: as §1

[12] = biological target: Gal(b1-4)GlcNAc(b1-3)Gal(b1-3)GlcNAc
How it was run: as §1

[13] = biological target: Gal(b1-4)GlcNAc(b1-3)Gal(b1-4)Glc
How it was run: as §1

[14] = biological target: Gal(b1-4)GlcNAc(b1-3)Gal(b1-4)GlcNAc
How it was run: as §1

[15] = biological target: Gal(b1-4)GlcNAc(b1-3)Gal(b1-4)GlcNAc(b1-3)Gal(b1-4)GlcNAc
How it was run: as §1

[16] = biological target: Gal(b1-4)GlcNAc(b1-3)Gal(b1-4)[Fuc(a1-3)]GlcNAc(b1-3)Gal(b1-4)[Fuc(a1-3)]GlcNAc
How it was run: as §1

[17] = biological target: Gal(b1-4)GlcNAc(b1-3)GalNAc
How it was run: as §1

[18] = biological target: Gal(b1-4)GlcNAc(b1-3)[Gal(b1-4)GlcNAc(b1-6)]Gal(b1-4)GlcNAc
How it was run: as §1

[19] = biological target: Gal(b1-4)GlcNAc(b1-3)[Gal(b1-4)GlcNAc(b1-6)]GalNAc
How it was run: as §1

[20] = biological target: Gal(b1-4)GlcNAc(b1-3)[GlcNAc(b1-6)]Gal(b1-4)GlcNAc
How it was run: as §1

[21] = biological target: Gal(b1-4)GlcNAc(b1-6)Gal(b1-4)GlcNAc
How it was run: as §1

[22] = biological target: Gal(b1-4)GlcNAc(b1-6)GalNAc
How it was run: as §1

[23] = biological target: Gal(b1-4)GlcNAc(b1-6)[Gal(b1-3)]GalNAc
How it was run: as §1

Gal3S(b1-3)GalNAc = biological target: Gal3S(b1-3)GalNAc
How it was run: as §1

Gal3S(b1-3)GlcNAc = biological target: Gal3S(b1-3)GlcNAc
How it was run: as §1

[24] = biological target: Gal3S(b1-3)[Fuc(a1-4)]GlcNAc
How it was run: as §1

Gal3S(b1-4)Glc = biological target: Gal3S(b1-4)Glc
How it was run: as §1

Gal3S(b1-4)Glc6S = biological target: Gal3S(b1-4)Glc6S
How it was run: as §1

Gal3S(b1-4)GlcNAc = biological target: Gal3S(b1-4)GlcNAc
How it was run: as §1

Gal3S(b1-4)GlcNAc6S = biological target: Gal3S(b1-4)GlcNAc6S
How it was run: as §1

[25] = biological target: Gal3S(b1-4)[Fuc(a1-3)]Glc
How it was run: as §1

[26] = biological target: Gal3S(b1-4)[Fuc(a1-3)]Glc6S
How it was run: as §1

Gal3S4S(b1-4)GlcNAc = biological target: Gal3S4S(b1-4)GlcNAc
How it was run: as §1

Gal3S6S(b1-4)GlcNAc = biological target: Gal3S6S(b1-4)GlcNAc
How it was run: as §1

Gal3S6S(b1-4)GlcNAc6S = biological target: Gal3S6S(b1-4)GlcNAc6S
How it was run: as §1

Gal4S(b1-4)GlcNAc = biological target: Gal4S(b1-4)GlcNAc
How it was run: as §1

Gal4S6S(b1-4)GlcNAc = biological target: Gal4S6S(b1-4)GlcNAc
How it was run: as §1

B1: SRS6 (Toxoplasma gondii), Q9NH12 (protein)
chain: MARTGSMQQRRGGFQTTARMLMAVCVSGVLLLSSGPSSANKLTEGQQNQNSGPGAATQEGPTIEGAVAKCVLKTTAAENGSSRAKNTTGLTLSKENLVVSLQCSGEKNAIVPKDQKKVCSAAPNAKVADCKGADTDKQVTLKSLLGTSGDIQWEKTIVSTDNKGEVMTLKIKESELPLFDKAFFVGCEEDKAQTRTSQATECKVNVSVKARPSTVGENNVVTCAYGKDSNPRPLEVEMSADNDTLTIDCGTDGSLKPTKYTEEFCVTDNSQLESCTTKKFSEILPTFLPSWWVSDSQNGSAKLTIPESGFPEEQQQFRLGCVPKKTTQSPQANPSVKTEKEEGAQNTDASTSNCSVIVTVKASNFSSLASSIAPTAAVAGGAAALTGFLVGSF
glycan array binding signal (z-score) [1]: 0.316 | glycan array binding signal (z-score) [2]: 0.291 | glycan array binding signal (z-score) [3]: -0.558 | glycan array binding signal (z-score) [4]: 3.04 | glycan array binding signal (z-score) [5]: -0.962 | glycan array binding signal (z-score) [6]: 0.521 | glycan array binding signal (z-score) [7]: -0.626 | glycan array binding signal (z-score) [8]: 1.23 | glycan array binding signal (z-score) [9]: -0.104 | glycan array binding signal (z-score) [10]: -0.305 | glycan array binding signal (z-score) [11]: -0.116 | glycan array binding signal (z-score) [12]: -0.596 | glycan array binding signal (z-score) [13]: 0.892 | glycan array binding signal (z-score) [14]: -0.277 | glycan array binding signal (z-score) [15]: 2.32 | glycan array binding signal (z-score) [16]: -0.096 | glycan array binding signal (z-score) [17]: -0.482 | glycan array binding signal (z-score) [18]: -0.75 | glycan array binding signal (z-score) [19]: 0.362 | glycan array binding signal (z-score) [20]: 0.169 | glycan array binding signal (z-score) [21]: 0.142 | glycan array binding signal (z-score) [22]: -1.04 | glycan array binding signal (z-score) [23]: 0.284 | glycan array binding signal (z-score) (Gal3S(b1-3)GalNAc): 0.152 | glycan array binding signal (z-score) (Gal3S(b1-3)GlcNAc): 0.114 | glycan array binding signal (z-score) [24]: -1.25 | glycan array binding signal (z-score) (Gal3S(b1-4)Glc): -0.403 | glycan array binding signal (z-score) (Gal3S(b1-4)Glc6S): 0.718 | glycan array binding signal (z-score) (Gal3S(b1-4)GlcNAc): -0.174 | glycan array binding signal (z-score) (Gal3S(b1-4)GlcNAc6S): 0.899 | glycan array binding signal (z-score) [25]: 0.713 | glycan array binding signal (z-score) [26]: -0.291 | glycan array binding signal (z-score) (Gal3S4S(b1-4)GlcNAc): -0.161 | glycan array binding signal (z-score) (Gal3S6S(b1-4)GlcNAc): 0.781 | glycan array binding signal (z-score) (Gal3S6S(b1-4)GlcNAc6S): -1.17 | glycan array binding signal (z-score) (Gal4S(b1-4)GlcNAc): 0.61 | glycan array binding signal (z-score) (Gal4S6S(b1-4)GlcNAc): 0.75
